Assay results published in article PMC12670160, “A drug-repurposing screen of FDA- and EMA-approved drugs identifies two NF-κB inhibitors active against eumycetoma” (Journal of Antimicrobial Chemotherapy, 2025).
Where a name gives a salt, the structure may show the parent alone. In all, about 5,300 compounds went through this assay and about 130 (2.5%) showed an effect of 50% or more. The list shows a part of the results.

tested on: M. mycetomatis strain mm55; settings: primary screen, metabolic activity vs growth control; 96 h, 2 µM; inhibitor

| Compound | % viability [%] |
| --- | --- |
| CCCCCCCCCCC(CO)CCCCCCCC (centres unmarked) [ONC0003687, 2octyldodecan1ol] | 64.53 |
| CC(=O)c1ccc2c(c1)[C@H](NC(=O)c1ccc(F)c(Cl)c1)[C@H](O)C(C)(C)O2 [ONC0002408, tonabersat] | 91.32 |
| NC(CO)C(=O)NNCc1ccc(O)c(O)c1O (centres unmarked) [ONC0003257, benserazide hydrochloride] | 90.76 |
| Cc1cccc(C(=O)NCN2CCN(c3ccccc3C#N)CC2)c1 [ONC0000842, pd168077] | 78.64 |
| CN(C)CCCN1c2ccccc2CCc2ccccc21 [ONC0000392, imipramine hydrochloride] | 71.21 |
| C[C@H]1COc2c(N3CCN(C)CC3)c(F)cc3c(=O)c(C(=O)O)cn1c23 [ONC0004298, levofloxacin] | 65.49 |
| CCc1cccc(CC)c1NC(=O)N1Cc2n[nH]c(NC(=O)c3ccc(N4CCN(C)CC4)cc3)c2C1 [ONC0004904, pha680632] | 99.99 |
| Fc1ccc([C@@H]2CCNC[C@H]2COc2ccc3c(c2)OCO3)cc1 [ONC0002311, paroxetine hydrochloride] | 122.1 |
| CN1CCN(c2ccc(OC(F)(F)F)c(Nc3ncc4c(n3)-c3c(c(C(N)=O)nn3CCO)CC4)c2)CC1 [ONC0001025, nms1286937] | 100.9 |
| CN(C/C=C/C#CC(C)(C)C)Cc1cccc2ccccc12 [ONC0004029, terbinafine hydrochloride] | 75.14 |
| O=c1[nH]cnc2c1ncn2[C@H]1CC[C@@H](CO)O1 [ONC0004781, didanosine videx] | 107 |
| CC(=O)OCC(=O)[C@@]1(O)[C@@H](C)CC2C3CCC4=CC(=O)C=C[C@]4(C)[C@@]3(F)[C@@H](O)C[C@@]21C (some centres unmarked) [ONC0004050, betamethasone acetate] | 111.9 |
| O=C(O)CCC(CP(=O)(O)O)C(=O)O (centres unmarked) [ONC0002514, pmpa] | 59.56 |
| Cc1cc(O)c2c(c1)C(=O)c1cc(O)cc(O)c1C2=O [ONC0004997, emodin] | 57.84 |
| Clc1ccc(Nc2nnc(Cc3ccncc3)c3ccccc23)cc1 [ONC0001243, vatalanib] | 71.62 |
| Cn1cc(-c2ccc3nnc(Sc4ccc5ncccc5c4)n3n2)cn1 [ONC0004359, sgx523] | 107.9 |
| C[C@@H]1CN(Cc2ncccn2)C[C@H]1c1nc2c(cnn2C2CCOCC2)c(=O)[nH]1 [ONC0001884, pf04447943] | 99.81 |
| C/C=C1\[C@H]2C=C(C)C[C@]1(N)c1ccc(=O)[nH]c1C2 [ONC0001211, huperzine a] | 89.91 |
| CN1CCN(C2CCN(C(=O)Nc3cc(Oc4ccc(NC(=O)C5(C(=O)Nc6ccc(F)cc6)CC5)c(F)c4)ccn3)CC2)CC1 [ONC0004478, golvatinib e7050] | 152.8 |

Among those listed so far, these contain fluorine.

| Compound | % viability [%] |
| --- | --- |
| CC(=O)c1ccc2c(c1)[C@H](NC(=O)c1ccc(F)c(Cl)c1)[C@H](O)C(C)(C)O2 [ONC0002408, tonabersat] | 91.32 |
| C[C@H]1COc2c(N3CCN(C)CC3)c(F)cc3c(=O)c(C(=O)O)cn1c23 [ONC0004298, levofloxacin] | 65.49 |
| Fc1ccc([C@@H]2CCNC[C@H]2COc2ccc3c(c2)OCO3)cc1 [ONC0002311, paroxetine hydrochloride] | 122.1 |
| CN1CCN(c2ccc(OC(F)(F)F)c(Nc3ncc4c(n3)-c3c(c(C(N)=O)nn3CCO)CC4)c2)CC1 [ONC0001025, nms1286937] | 100.9 |
| CC(=O)OCC(=O)[C@@]1(O)[C@@H](C)CC2C3CCC4=CC(=O)C=C[C@]4(C)[C@@]3(F)[C@@H](O)C[C@@]21C (some centres unmarked) [ONC0004050, betamethasone acetate] | 111.9 |
| CN1CCN(C2CCN(C(=O)Nc3cc(Oc4ccc(NC(=O)C5(C(=O)Nc6ccc(F)cc6)CC5)c(F)c4)ccn3)CC2)CC1 [ONC0004478, golvatinib e7050] | 152.8 |

Later entries

| Compound | % viability [%] |
| --- | --- |
| FC(F)(F)c1ccc(Nc2ncnc3cc(-c4ncccc4C(F)(F)F)ccc23)cc1 [ONC0001942, mk2295] | 91.37 |
| CN(C)C(=O)Oc1cccc([N+](C)(C)C)c1 [ONC0000395, neostigmine bromide] | 57.87 |
| O=C(Oc1cccc2cccnc12)c1ccccc1 [ONC0003987, benzoxiquine] | 75.23 |
| CCOC(=O)[C@H](CCc1ccccc1)N[C@@H](C)C(=O)N1Cc2cc(OC)c(OC)cc2C[C@H]1C(=O)O [ONC0002079, moexipril hydrochloride] | 73.52 |
| CN1CCC(OC(c2ccccc2)c2ccccc2)CC1 [ONC0000702, diphenylpyraline hydrochloride] | 115.4 |
| FC(F)(F)c1cccc(-c2noc(-c3cc(-c4ccccc4)c(C(F)(F)F)s3)n2)c1 [ONC0003601, sew2871] | 86.58 |
| COc1cc(/C=C/C(=O)CC(=O)/C=C/c2ccc(O)c(OC)c2)ccc1O [ONC0004898, curcumin] | 124.2 |
| N=C(N)NCCC[C@@H](N)C(=O)O [ONC0004802, larginine hcl] | 91.52 |
| O=C(O)CSCC(=O)NC1CCSC1=O (centres unmarked) [ONC0000438, erdosteine] | 68.51 |
| CC(C)(C)S(=O)(=O)N[C@H]1CC[C@H](C(=O)Nc2ccc(C(F)(F)F)cn2)CC1 [ONC0001819, velneperit] | 85.83 |
| [2H]C([2H])([2H])C(O)(CCO[C@@H](C)[C@H]1CC[C@H]2/C(=C/C=C3/C[C@@H](O)C[C@H](O)C3=C)CCC[C@]12C)C([2H])([2H])[2H] [ONC0001868, maxacalcitol] | 112.3 |
| CC(=O)N1CCC(NC(=O)c2ccc(F)cc2)CC1 [ONC0002309, fk962] | 80.77 |
| CN1C(=O)N(c2ccc(C#N)c(C(F)(F)F)c2)C(=O)[C@@]1(CO)c1ccccc1 [ONC0001091, glpg0492] | 63.42 |
| COC1/C=C/OC2(C)Oc3c(C)c(O)c4c(O)c(c(/C=N/N=C/N5CCCCC5)c(O)c4c3C2=O)NC(=O)/C(C)=C\C=C\C(C)C(O)C(C)C(O)C(C)C(OC(C)=O)C1C (centres unmarked) [ONC0003798, fce22250] | 33.52 |
| NC(C(=O)O)c1cc(O)cc(O)c1 (centres unmarked) [ONC0001409, dihydroxyphenylglycine] | 59.13 |
| NCC[C@H](O)C(=O)N[C@@H]1C[C@H](N)[C@@H](O[C@H]2O[C@H](CN)[C@@H](O)[C@H](O)[C@H]2O)[C@H](O)[C@H]1O[C@H]1O[C@H](CO)[C@@H](O)[C@H](N)[C@H]1O [ONC0000307, amikacin hydrate] | 80.85 |
| Cc1onc(O)c1C[C@H](N)C(=O)O [ONC0000721, ampas] | 67.9 |
| O=C1c2cccc3c2[C@H](CCC3)CN1[C@@H]1CN2CCC1CC2 [ONC0004369, palonosetron hcl] | 123.7 |
